# Some of the results follow. Shown are side measurements of this screen, not its main read-out; they come without a call. The list favours compounds with an active or inconclusive main result. Potencies come from curve fits of mixed quality, noted in brackets.
# Experiment: qHTS Assay for Modulators of Lamin A Splicing
# Details: HeLa LMNA splicing GFP/RFP minigene ratio, 48 h
# Outline: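 S3 HeLa stable clones carrying a lamin A-EGFP splicing minigene plus DsRed2 were seeded at 600 cells/well in Opti-MEM with 2% FBS, pin-dosed and incubated 48 h at 37°C. Acumen cytometry (488 nm) gave the GFP/RFP total-intensity ratio.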
# [1] = measured here: RFP viability control channel
# [2] = measured here: GFP splicing reporter channel
compound,measurement,setting,value
CCOc1ccc(Cc2nnc(SCC(=O)c3ccc(OC)cc3)o2)cc1,AC50,[1],"14.1 µM [rising, partial curve]"
CCC[C@H]1C(=O)N2C(N(C)C)=Nc3ccc(C)cc3N2C1=O,AC50,[2],"0.00141 µM [falling, full curve, poor fit]"
same,AC50,[1],"14.1 µM [falling, single point]"
CCc1cccc(NC(=O)c2cnc(SC)nc2-c2ccccc2)c1,AC50,[2],"35.5 µM [falling, single point]"
CC(C)(C)C1CCc2c(sc(NC(=O)C3CC=CCC3C(=O)O)c2C#N)C1 (configuration not stated),AC50,[2],"14.1 µM [rising, single point]"
same,AC50,[1],"1 µM [rising, full curve, poor fit]"
N#CC1=C(N)Oc2nc(-c3ccccc3)[nH]c2C1c1cccnc1 (configuration not stated),AC50,[1],"35.5 µM [falling, single point]"
CCC1=NN(C(=O)c2ccccc2Br)C(O)(c2ccc(Br)cc2)C1 (configuration not stated),AC50,[1],"1.26 µM [rising, full curve, poor fit]"
COCCCn1c(SCCc2ccccc2)nc2cc(OC)c(OC)cc2c1=N,AC50,[2],"31.6 µM [falling, partial curve, poor fit]"
same,AC50,[1],"22.4 µM [falling, single point]"
Cc1ccc(C(=O)OCC(=O)Nc2ccccc2Sc2ccccc2)cc1C,AC50,[2],"22.4 µM [rising, partial curve, poor fit]"
N#Cc1ccc(C(=O)Nc2ccn(-c3ccccc3)n2)cc1,AC50,[2],"20 µM [rising, partial curve]"
same,AC50,[1],"35.5 µM [rising, single point]"
CCCCNS(=O)(=O)c1ccc(NC(=O)C(Sc2ccccc2)c2ccccc2)cc1 (configuration not stated),AC50,[1],"20 µM [rising, single point]"
COCCn1c(SCCOc2ccccc2)nc2ccccc2c1=O,AC50,[2],"5.62 µM [falling, partial curve]"
COc1ccc(C2C=C(C34CC5CC(CC(C5)C3)C4)NC(=S)N2)cc1 (configuration not stated),AC50,[1],"15.8 µM [rising, partial curve]"
CN(C)CCC(=O)c1ccc2c(c1)OCO2,AC50,[1],"4.47 µM [rising, single point]"
CS(=O)(=O)c1ccccc1-c1nc(-c2ccc([N+](=O)[O-])cc2)no1,AC50,[1],"3.98 µM [falling, full curve, poor fit]"
CCN(Cc1ccccc1)C(=O)CCCOc1ccccc1,AC50,[2],"14.1 µM [rising, single point]"
same,AC50,[1],"17.8 µM [rising, single point]"
CCC(=O)Nc1ccc(C(=O)CSc2nc3ccc(C)cc3[nH]2)cc1,AC50,[2],"3.16 µM [falling, full curve]"
same,AC50,[1],"4.47 µM [falling, full curve, poor fit]"
CC(C)(C)c1csc(NC(=O)CSc2nc3ccccc3c(=O)[nH]2)n1,AC50,[1],"8.91 µM [rising, partial curve]"
Cc1ccc2[nH]cc(C(=O)CCl)c2c1,AC50,[1],"5.01 µM [rising, single point]"
CN(C)C(C(=O)Nc1cc(Cl)cc(Cl)c1)c1ccccc1 (configuration not stated),AC50,[2],"6.31 µM [rising, partial curve, poor fit]"
Cc1ccc(C(=O)NN(C)c2nc3ccccc3nc2C(F)(F)F)cc1,AC50,[1],"2.82 µM [rising, full curve]"
CC(=O)CC(=O)Nc1ncccn1,AC50,[2],"7.08 µM [falling, partial curve, poor fit]"
same,AC50,[1],"0.794 µM [falling, full curve, poor fit]"
CCCOc1ccc(C2c3c(oc4cc(C)c(C)cc4c3=O)C(=O)N2CCCN(C)C)cc1 (configuration not stated),AC50,[1],"25.1 µM [rising, single point]"
CCN(Cc1ccccc1)C(c1cccc(C#N)c1)c1nnnn1C(C)(C)C (configuration not stated),AC50,[1],"17.8 µM [rising, single point]"
O=C(Nc1ccc(F)cc1F)NC1CCN(S(=O)(=O)c2ccc(F)cc2)CC1,AC50,[1],"1.12 µM [falling, full curve, poor fit]"
CC1CCN(S(=O)(=O)c2ccc(S(=O)(=O)N3CCN4CCCC4C3)cc2)CC1 (configuration not stated),AC50,[1],"0.1 µM [falling, single point]"
CC[N+]1(C)CC2CCC(C)(C1)C2(C)C (configuration not stated),AC50,[1],"50.1 µM [falling, partial curve, poor fit]"
CC(Oc1ccc(F)cc1)C(=O)Nc1cc(-c2ccc(F)c(F)c2)no1 (configuration not stated),AC50,[2],"20 µM [falling, single point]"
Cc1ccc(S(=O)(=O)NCC2CCC(C(=O)N(C)Cc3ccccc3)CC2)cc1 (configuration not stated),AC50,[2],"35.5 µM [falling, single point]"
Cc1ccc(C2CC(c3ccc(Cl)cc3)=NNC2=O)cc1 (configuration not stated),AC50,[2],"20 µM [rising, partial curve, poor fit]"
same,AC50,[1],"28.2 µM [rising, single point]"

# No new results follow: entries from further up.
compound,measurement,setting,value
CCC(=O)Nc1ccc(C(=O)CSc2nc3ccc(C)cc3[nH]2)cc1,AC50,[1],"4.47 µM [falling, full curve, poor fit]"
CC(C)(C)c1csc(NC(=O)CSc2nc3ccccc3c(=O)[nH]2)n1,AC50,[1],"8.91 µM [rising, partial curve]"
Cc1ccc2[nH]cc(C(=O)CCl)c2c1,AC50,[1],"5.01 µM [rising, single point]"
